Results from one PubChem assay

Data taken from PubChem BioAssay AID912, deposited by NCATS (2007).

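A cell-based FRET test of anthrax lethal toxin entry, tracked through the 460 nm emission signal; the cell line is not named here. Each compound was tested as a concentration series from about 0.0005 to 40 µM. The number is the fitted AC50 of the 460 nm signal alone; lower values mean a more potent effect. A falling signal goes with compounds filed as inhibitors or cytotoxic, a rising one with activators or fluorescent compounds (inferred from the filed classes).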

Values are in µM. Common to all entries: measured here: 460 nm channel. This is a side read-out of the assay, for part of the compounds, not drawn at random. A potency from a partial, single-point or poor curve is only a rough figure. The first word of each remark tells which way the curve ran; it can be opposite to the aim of the assay.

CCOc1ccccc1NC(=O)Cc1ccccc1OC read AC50 3.162 µM (rising, single point).
CCCCOC(=O)Nc1ccc(C(=O)OCCC)cc1 read AC50 25.12 µM (falling, single point).
CN1CCN(c2ccc(NC(=O)COc3ccc(Cl)cc3Cl)cc2)CC1 read AC50 1.259 µM (falling, full curve).
CS(=O)(=O)N1CCC[C@@]2(CCN(c3ccccc3)C2)C1 read AC50 15.85 µM (rising, partial curve).
O=c1oc2c(O)c(O)cc3c(=O)oc4c(O)c(O)cc1c4c23 read AC50 1 µM (falling, full curve).
COc1ccc(-c2nc3cnc(Nc4ccccc4)nc3n(C[C@H]3CCCO3)c2=O)cc1 read AC50 12.59 µM (rising, partial curve).
CC1CCN(C(=O)CSc2nnc(CN3CCOCC3)n2-c2ccccc2)CC1 read AC50 0.5012 µM (falling, full curve, poor fit).
COc1ccc(N2CCN(C(=O)c3ccc(OCC4CCCO4)cc3)CC2)cc1 (stereo not given) read AC50 5.012 µM (rising, single point).
CCN(CC)c1ccc(C2C(C(=O)Nc3ccccn3)=C(C)NC3=C2C(=O)CC(C)(C)C3)cc1 (stereo not given) read AC50 3.981 µM (rising, partial curve).
COc1ccc(Oc2ncc3nc(-c4ccc(Cl)cc4)c(=O)n(CCC#N)c3n2)cc1 read AC50 0.1259 µM (falling, full curve, poor fit).
CCOc1ccc(OCC)c(NC(=O)CN2CCN(c3cc(C)ccc3C)CC2)c1 read AC50 15.85 µM (falling, partial curve).
CSc1ncccc1C(=O)OCC(=O)Nc1cc(C(F)(F)F)ccc1N1CCOCC1 read AC50 19.95 µM (falling, partial curve).
CO[C@]1(NC(=O)Cc2cccs2)C(=O)N2C(C(=O)O)=C(COC(N)=O)CS[C@H]21 read AC50 1.585 µM (falling, partial curve).
C/C=C(/C)C#N read AC50 31.62 µM (falling, single point).
N#CC(C(=O)c1ccc(S(=O)(=O)N2CCCCCC2)cc1)c1nc2ccccc2[nH]1 (stereo not given) read AC50 0.5012 µM (falling, full curve).
CCCC(=O)NC(c1ccco1)c1cc(Cl)c2cccnc2c1O (stereo not given) read AC50 1 µM (falling, full curve).
CCC(Sc1nc2n[nH]c(C)c2c(=N)n1-c1cccc(Cl)c1C)C(=O)N(CC)CC (stereo not given) read AC50 3.981 µM (rising, partial curve).
CCCC(=O)Nc1ccc2c(c1)nc1n2CCSC1 read AC50 12.59 µM (rising, partial curve).
CCS(=O)(=O)N1CCN(c2cccc(C)c2C)CC1 read AC50 3.981 µM (rising, single point).
CCOC(=O)c1cc(CC)sc1NC(=O)COC read AC50 0.1259 µM (falling, partial curve).
Cc1nc(-c2ccc(C(=O)N3CCOCC3)cc2)cs1 read AC50 0.3162 µM (falling, single point).
O=c1c2ccccc2nc(SCc2ccccc2)n1Cc1ccco1 read AC50 5.012 µM (falling, partial curve).
CCOC(=O)N1CC=C2C(C#N)=C(N)C(C#N)(C#N)[C@H](c3ccsc3)[C@H]2C1 read AC50 12.59 µM (rising, single point).
CN1CCN(c2ncnc3ccc(-c4ccccc4C(F)(F)F)cc23)CC1 read AC50 12.59 µM (falling, partial curve).
CCCC/C=C/C(NC(=O)Oc1cccc(C(F)(F)F)c1)c1ccccc1 (stereo not given) read AC50 10 µM (falling, partial curve).
COc1cccc(CNC(=O)C2CCCN(c3nc4ccccc4o3)C2)c1 (stereo not given) read AC50 0.3162 µM (falling, partial curve, poor fit).
COc1ccccc1N1CCN(CCCCN2C(=O)CCC2=O)CC1 read AC50 12.59 µM (falling, single point).
CCCCCCCCCCCC1=C(O)C(=O)C=C(O)C1=O read AC50 12.59 µM (falling, full curve).
CC(C)n1cnc2c(C(=O)N[C@H]3CN4CCC3CC4)cc(Cl)cc21 read AC50 12.59 µM (falling, single point).
COc1ccccc1NC(=O)CSc1nc2sc(C)c(C)c2c(=O)n1Cc1ccco1 read AC50 0.00631 µM (falling, full curve, poor fit).
CCOc1ccc(N(C)S(=O)(=O)c2ccc3[nH]cc(C(=O)NCC4CCCO4)c(=O)c3c2)cc1 (stereo not given) read AC50 3.981 µM (falling, single point).

For reference, 3 entries once more:

- CS(=O)(=O)N1CCC[C@@]2(CCN(c3ccccc3)C2)C1 | AC50 15.85 µM (rising, partial curve)
- CN1CCN(c2ccc(NC(=O)COc3ccc(Cl)cc3Cl)cc2)CC1 | AC50 1.259 µM (falling, full curve)
- CC1CCN(C(=O)CSc2nnc(CN3CCOCC3)n2-c2ccccc2)CC1 | AC50 0.5012 µM (falling, full curve, poor fit)